# Laboratory results published in PMC5283830, “Suppression of C9orf72 RNA repeat-induced neurotoxicity by the ALS-associated RNA-binding protein Zfp106”.
# Chains of the proteins cited; added tags and fusions are not shown.
# UniProt O88466: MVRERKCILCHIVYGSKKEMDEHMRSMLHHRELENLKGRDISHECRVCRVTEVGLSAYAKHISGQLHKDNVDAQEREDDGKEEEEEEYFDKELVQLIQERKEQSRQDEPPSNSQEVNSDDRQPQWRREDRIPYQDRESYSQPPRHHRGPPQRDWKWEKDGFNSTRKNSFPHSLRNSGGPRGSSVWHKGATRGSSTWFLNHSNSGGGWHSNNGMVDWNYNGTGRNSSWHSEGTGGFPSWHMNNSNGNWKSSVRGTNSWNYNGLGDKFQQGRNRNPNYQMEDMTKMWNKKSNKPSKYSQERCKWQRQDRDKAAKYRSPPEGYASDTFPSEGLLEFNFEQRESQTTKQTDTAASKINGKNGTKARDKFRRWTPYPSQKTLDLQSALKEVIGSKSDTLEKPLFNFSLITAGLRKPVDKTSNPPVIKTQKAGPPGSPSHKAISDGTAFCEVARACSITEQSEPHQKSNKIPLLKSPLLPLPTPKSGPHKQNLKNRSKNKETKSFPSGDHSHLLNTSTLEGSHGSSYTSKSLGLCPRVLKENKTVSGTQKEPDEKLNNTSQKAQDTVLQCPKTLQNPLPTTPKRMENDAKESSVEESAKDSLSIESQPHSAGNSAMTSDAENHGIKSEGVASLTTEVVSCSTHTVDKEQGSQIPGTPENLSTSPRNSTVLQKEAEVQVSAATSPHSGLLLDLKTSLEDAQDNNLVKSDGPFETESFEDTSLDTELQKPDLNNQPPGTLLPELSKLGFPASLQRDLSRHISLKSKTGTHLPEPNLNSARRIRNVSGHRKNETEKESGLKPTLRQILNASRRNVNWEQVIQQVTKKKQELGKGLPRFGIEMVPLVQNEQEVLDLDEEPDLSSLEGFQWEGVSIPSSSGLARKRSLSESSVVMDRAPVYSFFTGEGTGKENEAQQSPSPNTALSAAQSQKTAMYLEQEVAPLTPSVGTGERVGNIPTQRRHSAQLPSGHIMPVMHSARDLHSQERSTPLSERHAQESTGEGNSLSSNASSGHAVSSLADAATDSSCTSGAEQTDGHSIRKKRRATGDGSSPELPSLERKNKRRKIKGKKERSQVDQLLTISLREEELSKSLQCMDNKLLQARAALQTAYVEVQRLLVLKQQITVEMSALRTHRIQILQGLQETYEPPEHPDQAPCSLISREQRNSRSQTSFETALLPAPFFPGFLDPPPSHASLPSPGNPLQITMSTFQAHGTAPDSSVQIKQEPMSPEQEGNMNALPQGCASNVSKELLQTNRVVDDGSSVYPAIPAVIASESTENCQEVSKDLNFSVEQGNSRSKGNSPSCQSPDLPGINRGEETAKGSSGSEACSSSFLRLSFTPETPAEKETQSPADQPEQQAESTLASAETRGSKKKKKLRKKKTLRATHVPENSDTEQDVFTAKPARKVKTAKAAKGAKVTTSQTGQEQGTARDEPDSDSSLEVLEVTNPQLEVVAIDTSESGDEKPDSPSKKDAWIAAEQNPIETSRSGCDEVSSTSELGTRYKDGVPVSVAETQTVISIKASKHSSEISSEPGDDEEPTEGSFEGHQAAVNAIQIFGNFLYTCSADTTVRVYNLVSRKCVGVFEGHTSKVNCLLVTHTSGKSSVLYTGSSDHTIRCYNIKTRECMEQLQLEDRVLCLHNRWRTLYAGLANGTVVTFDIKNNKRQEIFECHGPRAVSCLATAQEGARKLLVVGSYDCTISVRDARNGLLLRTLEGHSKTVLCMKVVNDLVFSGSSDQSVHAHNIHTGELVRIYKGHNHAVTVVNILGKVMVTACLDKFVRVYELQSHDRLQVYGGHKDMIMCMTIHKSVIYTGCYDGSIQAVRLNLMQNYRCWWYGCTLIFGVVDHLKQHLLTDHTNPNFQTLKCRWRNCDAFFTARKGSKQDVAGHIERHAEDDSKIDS
# UniProt P35637: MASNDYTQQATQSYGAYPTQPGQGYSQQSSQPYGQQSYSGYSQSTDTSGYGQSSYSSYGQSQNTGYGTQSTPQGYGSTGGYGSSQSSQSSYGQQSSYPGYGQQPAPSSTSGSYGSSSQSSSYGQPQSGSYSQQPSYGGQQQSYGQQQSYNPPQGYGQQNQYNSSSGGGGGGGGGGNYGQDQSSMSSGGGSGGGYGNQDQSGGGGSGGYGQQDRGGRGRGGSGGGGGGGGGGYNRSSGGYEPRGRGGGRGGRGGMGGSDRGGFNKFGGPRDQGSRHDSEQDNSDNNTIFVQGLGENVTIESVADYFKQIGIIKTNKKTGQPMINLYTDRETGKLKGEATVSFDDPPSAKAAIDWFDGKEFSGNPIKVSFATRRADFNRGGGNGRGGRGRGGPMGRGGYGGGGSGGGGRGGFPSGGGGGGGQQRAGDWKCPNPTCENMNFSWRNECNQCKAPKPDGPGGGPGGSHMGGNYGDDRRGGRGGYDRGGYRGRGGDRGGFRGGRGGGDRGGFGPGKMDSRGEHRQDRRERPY
# UniProt Q13148: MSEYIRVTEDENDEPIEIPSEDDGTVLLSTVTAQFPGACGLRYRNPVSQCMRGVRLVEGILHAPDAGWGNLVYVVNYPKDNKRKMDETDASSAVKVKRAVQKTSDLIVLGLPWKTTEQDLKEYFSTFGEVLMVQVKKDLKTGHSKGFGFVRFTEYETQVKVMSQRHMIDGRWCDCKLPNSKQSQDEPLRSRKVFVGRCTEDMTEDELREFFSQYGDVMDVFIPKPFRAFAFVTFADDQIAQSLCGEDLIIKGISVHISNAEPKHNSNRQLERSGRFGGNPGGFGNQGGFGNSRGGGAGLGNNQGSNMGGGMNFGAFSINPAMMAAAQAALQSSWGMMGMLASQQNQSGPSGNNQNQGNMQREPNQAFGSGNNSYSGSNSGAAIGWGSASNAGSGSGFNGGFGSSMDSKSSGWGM
# Molecular target: 3×FLAG-2×STREP-Zfp106 (mouse) (UniProt O88466)
# Test: affinity purification with mass spectrometry; 3×FLAG-2×STREP-Zfp106 from nuclear extracts of transfected HEK293T cells, benzonase digestion (100 U/ml, 30 min, 1 mM MgCl2), anti-FLAG(M2) magnetic beads 2 hr at 4°C, elution with 3×FLAG peptide, LC-MS/MS; MiST scoring against control baits, top 5% MiST score
row,binding,Molecule
1,binds,FUS (from UniProt P35637 1-526)
2,binds,TDP-43 (from UniProt Q13148 1-414)
3,binds,"Nup107 (protein, UniProt P57740 1-925) MDRSGFGEISSPVIREAEVTRTARKQSAQKRVLLQASQDENFGNTTPRNQVIPRTPSSFRQPFTPTSRSLLRQPDISCILGTGGKSPRLTQSSGFFGNLSMVTNLDDSNWAAAFSSQRSGLFTNTEPHSITEDVTISAVMLREDDPGEAASMSMFSDFLQSFLKHSSSTVFDLVEEYENICGSQVNILSKIVSRATPGLQKFSKTASMLWLLQQEMVTWRLLASLYRDRIQSALEEESVFAVTAVNASEKTVVEALFQRDSLVRQSQLVVDWLESIAKDEIGEFSDNIEFYAKSVYWENTLHTLKQRQLTSYVGSVRPLVTELDPDAPIRQKMPLDDLDREDEVRLLKYLFTLIRAGMTEEAQRLCKRCGQAWRAATLEGWKLYHDPNVNGGTELEPVEGNPYRRIWKISCWRMAEDELFNRYERAIYAALSGNLKQLLPVCDTWEDTVWAYFRVMVDSLVEQEIQTSVATLDETEELPREYLGANWTLEKVFEELQATDKKRVLEENQEHYHIVQKFLILGDIDGLMDEFSKWLSKSRNNLPGHLLRFMTHLILFFRTLGLQTKEEVSIEVLKTYIQLLIREKHTNLIAFYTCHLPQDLAVAQYALFLESVTEFEQRHHCLELAKEADLDVATITKTVVENIRKKDNGEFSHHDLAPALDTGTTEEDRLKIDVIDWLVFDPAQRAEALKQGNAIMRKFLASKKHEAAKEVFVKIPQDSIAEIYNQCEEQGMESPLPAEDDNAIREHLCIRAYLEAHETFNEWFKHMNSVPQKPALIPQPTFTEKVAHEHKEKKYEMDFGIWKGHLDALTADVKEKMYNVLLFVDGGWMVDVREDAKEDHERTHQMVLLRKLCLPMLCFLLHTILHSTGQYQECLQLADMVSSERHKLYLVFSKEELRKLLQKLRESSLMLLDQGLDPLGYEIQL"

# Results are given in words; binding and its absence hold for the method and conditions named. Binding seen in cells or lysates may run through a third protein. A yes stands for co-enrichment or nearness to the bait. Other partners may have been found.
